Values from PubChem BioAssay AID602196 (INSERM, 2012)
Assay: 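Knock-downs that protect lung cancer cells from cisplatin or sensitise them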. Cells: human A549 lung cancer cells. Reagent: siRNA pair against human genes. Timing: 48 h transfection before cisplatin; time from cisplatin to read-out not stated. Conditions: cisplatin at a dose killing half of control-siRNA cells; exact dose and duration not given. Measured: 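Shift in cisplatin death relative to control siRNA, from -50 (all cells die) to +50 (no cells die); siRNAs harmful on their own scored 0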. Reading the numbers: two-siRNA summed score (-2 to +2): higher = both siRNAs protect from cisplatin killing; -2 means both sensitise; mean protection from cisplatin (shift in death) and protection from cisplatin (shift in death), siRNA C and protection from cisplatin (shift in death), siRNA D: higher = protection from cisplatin killing. Call rule: 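Each siRNA scores 0 if harmful alone by LDH or WST-1, otherwise +1 if it reduces and -1 if it increases cisplatin killing; a gene is active when both siRNAs agree (sum +2 or -2)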. Calls: active = both siRNAs shift cisplatin killing the same way; inactive = no consistent shift, or siRNA harmful alone.
In all, the deposit lists about 23,000 reagents; shown is a part drawn at random. 455 of all reagents (2%) were called active. 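Active includes both protection and sensitisation; some change values fall well beyond the stated -50 to +50 range.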 Entries without a mark were called inactive. The record does not give: the amount of reagent.

gene	two-siRNA summed score (-2 to +2)	mean protection from cisplatin (shift in death) (%)	protection from cisplatin (shift in death), siRNA C (%)	protection from cisplatin (shift in death), siRNA D (%)
HDAC3	0	7.9	9.4	6.3
ARID1A	0	1.2	3.8	-1.4
PDE4D	-1	-14.4	-5.4	-23.3
LOXL3	1	11	30.1	-8
LOC440572	0	-0.8	2.5	-4
SP4	1	17.1	25.6	8.7
LOC442618	0	-0.2	0	-0.4
EDAR	-1	-10.1	-4.4	-15.9
CIROZ	-1	-0.9	-14.4	12.7
SLC14A2	0	5	5.7	4.4
NR1I3	-2 (active)	-14.9	-10.2	-19.6
ZNF510	0	0.8	3.8	-2.2
ITGB8	0	1.9	-7.7	11.5
LOC442280	1	2.8	-6.9	12.6
GDAP2	0	-0.5	-15.7	14.7
LAMC2	0	4	-1.6	9.7
MYOC	0	-3.1	-0.7	-5.5
CLNS1A	1	4	-17.6	25.5
LOC441319	0	10.6	8.9	12.3
ADPGK	0	7.5	3.1	11.9
FMNL3	0	8.2	12.9	3.5
LOC391303	0	9	12.2	5.7
LOC440509	0	13.7	13.3	14.1
AGPAT5	-1	-10.4	-5.2	-15.5
DNAJC5	0	-1.4	6.1	-8.9
LOC440771	1	9.9	18.3	1.5
P2RX3	1	7.1	19.6	-5.5
LOC440397	1	24.1	32.8	15.4
MROH7	0	17.6	21.1	14.1
TMBIM1	0	2.8	13.5	-7.8
GALNTL5	-1	0.7	17.8	-16.4
CUTC	0	-1.8	-5.4	1.9
SPACDR	-1	-6.7	-11.8	-1.6
TARS1	0	-4	7.7	-15.8
RASGEF1B	0	-2	-0.6	-3.3
ELF4	0	1.9	8.2	-4.4
PCMT1	0	0.1	1.8	-1.6
CALCR	1	6.3	14.5	-1.9
CLVS1	0	-0.1	9	-9.1
